Data taken from PubChem BioAssay AID485314 (National Center for Advancing Translational Sciences (NCATS), 2010).
About 4,500 (1.3%) of roughly 340,000 compounds were called active. The inconclusive results got no clear call from the source; some entries with a clear call stand among them for comparison. Calls come from the whole dose curve; as a rule, active = well fitted inhibition curve with a large enough effect; inconclusive = small, poorly fitted or top-dose-only effect, or another doubt; inactive = no such curve, though single readings can be large or run the other way. Potencies of inconclusive entries are doubtful fits and often do not repeat.

molecular target: DNA polymerase beta (Homo sapiens) (UniProt P06746); test: qHTS Assay for Inhibitors of DNA Polymerase Beta; conditions: Pol beta primer extension/strand displacement, fluorescence kinetic; activity change, negative = inhibition: at 114 µM (top of the series)
Procedure, shortened: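 Kinetic readout of DNA synthesis with strand displacement by Pol beta. Compound and 10 nM enzyme sit 15 min at room temperature; 50 nM substrate starts the reaction, read immediately and at 10 min.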
% is set by controls: 0 for no effect and ±100 for the full control effect; potency is the fitted concentration of half-maximal effect.

| Compound | Potency | activity change, negative = inhibition |
| --- | --- | --- |
| Cc1ccc(CC(=O)Nc2cccc(S(=O)(=O)N3CCOCC3)c2)cc1 | inconclusive: 0.562 µM [inhibitor, full curve, poor fit] | – |
| Cn1cc(S(=O)(=O)CC(=O)Nc2ccc3c(c2)OCO3)c2ccccc21 | inconclusive: 89.1 µM [inhibitor, single point] | – |
| Cc1ccc(NC(=O)CN2C(=O)S/C(=C/c3ccc(-c4cccc(C(=O)O)c4)o3)C2=O)cc1 | active: 11.2 µM | – |
| CCN1CCN(c2nc(-c3cccs3)nc3ccccc23)CC1 | inconclusive: 28.2 µM [inhibitor, full curve, poor fit] | – |
| CCN1CCN(Cc2ccc(NC(=O)c3ccc(C)c(NC(=O)c4c[nH]c5cc(C(F)(F)F)ccc5c4=O)c3)cc2C(F)(F)F)CC1 | inactive | – |
| Cc1cccc(-c2nc3c(cnn3-c3ccccc3)c(=O)n2-c2ccc(Cl)cc2)c1 | inactive | – |
| O=C(Cn1ncc2c3ccccc3n(Cc3ccccc3)c2c1=O)NCCc1ccc(Cl)cc1 | inactive | – |
| CC1(C)CC(=O)C2=C(C1)O[C@@]1(c3ccsc3)Cc3cc(C#N)ccc3C2O1 | inconclusive: 0.355 µM [inhibitor, full curve] | – |
| CC1(OC(=O)C2CCCC2)C(=O)C=C2C=C(c3ccsc3)OC=C2C1=O (stereo not drawn) | active: 35.5 µM | – |
| C=CCN(CC=C)C(=S)NC(=O)Cc1cccc2ccccc12 | inconclusive: 15.8 µM [inhibitor, full curve, poor fit] | – |
| Cc1ccc(/C=N/n2c(-c3ccccn3)n[nH]c2=S)o1 | inactive | – |
| CC(C)S(=O)(=O)c1csc(C(=O)NNC(=O)Nc2ccccc2)c1Cl | inconclusive: 0.355 µM [inhibitor, full curve, poor fit] | – |
| C=C(C)C(=O)OCCCCCCOc1ccc(C(=O)O)cc1 | active: 70.8 µM | – |
| CCC(C(=O)OCC(=O)Nc1ccc(SC(F)F)cc1)c1ccccc1 (stereo not drawn) | inconclusive: 79.4 µM [inhibitor, single point] | – |
| O=C(Nc1ccc2c(c1)OCCO2)c1cccnc1Oc1ccc(Cl)cc1 | inconclusive: 100 µM [inhibitor, single point] | – |
| CCOC(=O)C1CCCN(C(=O)c2ccc(CS(=O)(=O)c3ccc(C)cc3)o2)C1 (stereo not drawn) | inconclusive: 31.6 µM [inhibitor, partial curve] | – |
| COC1CCCN(Cc2nc(Cc3ccccc3F)no2)C1 (stereo not drawn) | inconclusive: 0.562 µM [inhibitor, full curve, poor fit] | – |
| Cc1nc(C)c(C(=O)Nc2ccc(Oc3ccccc3)cc2)o1 | inconclusive: 28.2 µM [inhibitor, full curve, poor fit] | – |
| COc1cc(CNCCN2CCOCC2)ccc1OCc1ccc(Cl)cc1 | inconclusive: 89.1 µM [inhibitor, single point] | – |
| CCC(=O)N1CCc2cc(S(=O)(=O)NC(Cc3ccccc3)C(=O)NCc3ccccc3)ccc21 (stereo not drawn) | inconclusive: 1.26 µM [inhibitor, full curve, poor fit] | – |
| CC(=O)c1ccc(NC(=O)CN2CCN(c3ccccc3)CC2)cc1 | inactive | – |

| Compound | Potency | activity change, negative = inhibition |
| --- | --- | --- |
| CCOC(=O)c1cc(-c2ccc(/C=C3/C(=O)NC(=O)C(C#N)=C3C)o2)ccc1Cl | active: 35.5 µM | – |
| CC(=O)NC(=S)Nc1ccc(-c2nc3ccc(C)cc3s2)cc1 | inactive | – |
| CC1(C)Cc2ccccc2C(CSc2ccccc2C(=O)O)=N1 | inconclusive: 89.1 µM [inhibitor, single point] | – |
| COc1ccc(/C=C/C(=O)c2c(O)ccc3c(C)cc(=O)oc23)cc1 | inactive | – |
| COc1ccc(/C=C2/C(=O)N(c3nc4ccccc4s3)N=C2CSc2ccc(Cl)cc2)cc1 | inconclusive: 17.8 µM [inhibitor, full curve] | – |
| NS(=O)(=O)c1ccc(CNC(=O)c2cc(-c3cccnc3)nc3ccc(Cl)cc23)cc1 | inconclusive: 89.1 µM [inhibitor, single point] | – |
| CC(C)OC(=O)CSc1nnc(SCc2cccc3ccccc23)s1 | inconclusive: 0.141 µM [inhibitor, full curve, poor fit] | – |
| O=C1[C@@H]2Cc3c([nH]c4ccccc34)C(c3cccc(Br)c3)N2C(=O)CN1C1CCN(Cc2ccccc2)CC1 (stereo partly drawn) | inconclusive: 2.82 µM [inhibitor, partial curve] | – |
| COc1ccc(N2Cc3cccc(C(=O)O)c3C2=O)cc1 | active: 7.08 µM | – |
| COc1cccc(CNC(=O)C2CCN(S(=O)(=O)c3cccs3)CC2)c1 | inconclusive: 89.1 µM [inhibitor, single point] | – |
| CCC(/C=C1\Sc2ccc(OC)cc2N1CC)=C\c1sc2ccc(OC)cc2[n+]1CCCS(=O)(=O)[O-] | active: 8.91 µM | – |
| COc1ccc(CN=Cc2c(C(F)(F)F)[nH][nH]c2=O)cc1 | inconclusive: 112 µM [inhibitor, partial curve, poor fit] | – |
| COc1cc(/C=C2/C(=N)N3C=CSC3=NC2=O)ccc1OCCCOc1c(C)cccc1C | inconclusive: 39.8 µM [inhibitor, single point] | – |
| CCOC(=O)c1cc(Sc2ccccc2N)cc(C(=O)OCC)n1 | active: 25.1 µM | – |
| O=C(Nc1ccccc1C(F)(F)F)N1CCOc2ccc(Cl)cc21 | inconclusive: 3.98 µM [inhibitor, single point] | – |
| CCOC(=O)c1c(NC(=O)Cc2coc3ccc(CC)cc23)sc2c1CCC2 | inactive | – |
| Cc1cc(N(CCO)CCO)ccc1N=Nc1cc(F)ccc1F | inconclusive: 0.224 µM [inhibitor, full curve] | – |
| COc1cc2c(cc1OC)-c1cc(NC3CCCCCCC3)nc(=O)n1CC2 | inconclusive: 79.4 µM [inhibitor, single point] | – |
| Cc1nn(CCc2nc(-c3ccco3)cs2)c2[nH]c(=O)cc(C(F)(F)F)c12 | active: 22.4 µM | – |
| COc1ccccc1NC(=O)N1CCN(c2ccc3nnc(-c4ccc(F)cc4)n3n2)CC1 | inconclusive: 56.2 µM [inhibitor, partial curve] | inconclusive: -35.4% [inhibitor] |
| Cc1ccc(C(=O)Nc2ccccc2N2CCCC2)cc1 | inconclusive: 89.1 µM [inhibitor, single point] | – |

Of the compounds above, two have a cyano group:

| Compound | Potency | activity change, negative = inhibition |
| --- | --- | --- |
| CC1(C)CC(=O)C2=C(C1)O[C@@]1(c3ccsc3)Cc3cc(C#N)ccc3C2O1 | inconclusive: 0.355 µM [inhibitor, full curve] | – |
| CCOC(=O)c1cc(-c2ccc(/C=C3/C(=O)NC(=O)C(C#N)=C3C)o2)ccc1Cl | active: 35.5 µM | – |
